Measurements: article PMC10781861
No constants are given. Whether binding was seen depends on the method and setting. In cells and extracts the contact can be indirect. A yes stands for co-enrichment or nearness to the bait. Other partners may have been found.

Sequences of proteins named here, by UniProt entry; tags and fusion partners are left off. A change or cut given only in a name is not applied to a line headed by its entry.
UniProt Q4QC86: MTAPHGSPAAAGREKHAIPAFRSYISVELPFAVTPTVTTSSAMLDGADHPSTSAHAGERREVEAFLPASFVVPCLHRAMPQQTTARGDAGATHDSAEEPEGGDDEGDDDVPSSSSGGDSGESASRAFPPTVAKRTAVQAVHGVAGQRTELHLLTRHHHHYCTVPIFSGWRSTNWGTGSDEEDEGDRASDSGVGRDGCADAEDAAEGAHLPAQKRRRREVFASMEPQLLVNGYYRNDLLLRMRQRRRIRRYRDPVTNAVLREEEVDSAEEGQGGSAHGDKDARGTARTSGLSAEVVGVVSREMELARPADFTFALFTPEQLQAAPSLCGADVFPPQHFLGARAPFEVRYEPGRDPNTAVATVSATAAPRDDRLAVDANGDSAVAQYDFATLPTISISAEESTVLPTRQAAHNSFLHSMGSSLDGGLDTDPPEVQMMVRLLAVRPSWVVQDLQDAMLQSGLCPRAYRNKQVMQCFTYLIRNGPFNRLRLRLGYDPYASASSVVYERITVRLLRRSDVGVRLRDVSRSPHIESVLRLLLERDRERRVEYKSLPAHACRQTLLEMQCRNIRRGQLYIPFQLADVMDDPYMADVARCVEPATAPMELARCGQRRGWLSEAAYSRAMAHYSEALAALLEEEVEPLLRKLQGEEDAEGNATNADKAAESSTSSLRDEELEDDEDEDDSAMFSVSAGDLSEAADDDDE
UniProt Q4QJI9: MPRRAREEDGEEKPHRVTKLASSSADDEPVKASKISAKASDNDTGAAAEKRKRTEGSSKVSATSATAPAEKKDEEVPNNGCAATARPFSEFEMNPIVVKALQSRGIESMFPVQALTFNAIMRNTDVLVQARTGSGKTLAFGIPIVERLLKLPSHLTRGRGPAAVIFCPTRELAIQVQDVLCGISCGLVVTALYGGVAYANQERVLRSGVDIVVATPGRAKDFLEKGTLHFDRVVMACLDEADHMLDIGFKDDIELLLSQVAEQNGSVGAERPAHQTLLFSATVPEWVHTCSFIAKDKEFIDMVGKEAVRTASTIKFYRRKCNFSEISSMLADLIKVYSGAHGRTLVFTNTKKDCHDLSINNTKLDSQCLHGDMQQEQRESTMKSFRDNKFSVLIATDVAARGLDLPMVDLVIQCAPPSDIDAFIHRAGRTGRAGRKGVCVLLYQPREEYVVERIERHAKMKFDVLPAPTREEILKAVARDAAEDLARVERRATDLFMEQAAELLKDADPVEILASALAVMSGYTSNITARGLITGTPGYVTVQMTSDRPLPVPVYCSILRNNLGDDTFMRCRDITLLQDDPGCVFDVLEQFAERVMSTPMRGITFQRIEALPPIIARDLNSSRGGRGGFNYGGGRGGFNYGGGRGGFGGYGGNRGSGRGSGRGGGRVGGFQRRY
UniProt Q4QAN4: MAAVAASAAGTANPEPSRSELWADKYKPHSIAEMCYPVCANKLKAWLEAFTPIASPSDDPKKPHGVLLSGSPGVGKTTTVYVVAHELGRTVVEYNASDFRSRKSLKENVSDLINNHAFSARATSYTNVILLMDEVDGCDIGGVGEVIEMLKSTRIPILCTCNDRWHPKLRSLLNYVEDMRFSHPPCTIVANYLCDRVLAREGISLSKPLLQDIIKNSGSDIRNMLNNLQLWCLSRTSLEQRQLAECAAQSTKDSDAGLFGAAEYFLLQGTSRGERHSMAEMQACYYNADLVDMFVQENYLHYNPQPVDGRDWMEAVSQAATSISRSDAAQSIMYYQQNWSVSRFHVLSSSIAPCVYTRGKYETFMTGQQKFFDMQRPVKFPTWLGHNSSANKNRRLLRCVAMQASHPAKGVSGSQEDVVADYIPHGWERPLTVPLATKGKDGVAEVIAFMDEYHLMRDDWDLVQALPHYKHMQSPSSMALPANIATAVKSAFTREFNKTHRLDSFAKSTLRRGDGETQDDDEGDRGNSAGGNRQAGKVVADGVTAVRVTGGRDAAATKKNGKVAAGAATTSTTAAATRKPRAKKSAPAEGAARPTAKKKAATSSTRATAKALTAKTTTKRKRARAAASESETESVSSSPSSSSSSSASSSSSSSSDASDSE
UniProt E9AD76: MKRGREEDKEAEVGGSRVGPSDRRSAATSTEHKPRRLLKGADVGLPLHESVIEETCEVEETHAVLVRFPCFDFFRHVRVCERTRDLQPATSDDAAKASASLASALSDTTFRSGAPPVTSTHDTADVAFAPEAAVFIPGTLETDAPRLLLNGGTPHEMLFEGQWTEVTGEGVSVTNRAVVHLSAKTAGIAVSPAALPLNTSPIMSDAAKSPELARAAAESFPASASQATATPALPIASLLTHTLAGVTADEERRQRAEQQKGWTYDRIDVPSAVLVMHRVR
UniProt Q4Q2T4: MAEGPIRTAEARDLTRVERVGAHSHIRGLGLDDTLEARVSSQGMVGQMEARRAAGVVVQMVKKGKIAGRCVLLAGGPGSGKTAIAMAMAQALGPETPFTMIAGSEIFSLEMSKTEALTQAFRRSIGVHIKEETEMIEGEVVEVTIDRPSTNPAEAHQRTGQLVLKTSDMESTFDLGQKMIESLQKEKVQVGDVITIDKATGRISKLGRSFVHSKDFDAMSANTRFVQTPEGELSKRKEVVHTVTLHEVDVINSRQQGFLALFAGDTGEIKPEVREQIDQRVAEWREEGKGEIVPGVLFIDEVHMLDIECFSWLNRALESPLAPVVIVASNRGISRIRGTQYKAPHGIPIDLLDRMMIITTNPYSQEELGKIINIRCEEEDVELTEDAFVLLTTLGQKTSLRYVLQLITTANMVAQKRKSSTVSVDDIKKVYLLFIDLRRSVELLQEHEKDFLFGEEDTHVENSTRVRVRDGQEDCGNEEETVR
UniProt Q4Q732: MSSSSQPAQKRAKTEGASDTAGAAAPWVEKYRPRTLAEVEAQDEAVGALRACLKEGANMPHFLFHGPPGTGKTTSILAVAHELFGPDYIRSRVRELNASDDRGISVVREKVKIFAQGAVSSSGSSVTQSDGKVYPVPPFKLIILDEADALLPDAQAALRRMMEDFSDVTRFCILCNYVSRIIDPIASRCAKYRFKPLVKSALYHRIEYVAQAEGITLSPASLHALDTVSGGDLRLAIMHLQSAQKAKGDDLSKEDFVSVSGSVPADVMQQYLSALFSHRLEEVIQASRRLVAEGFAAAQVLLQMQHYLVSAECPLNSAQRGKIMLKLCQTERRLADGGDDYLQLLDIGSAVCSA
UniProt Q4QHJ7: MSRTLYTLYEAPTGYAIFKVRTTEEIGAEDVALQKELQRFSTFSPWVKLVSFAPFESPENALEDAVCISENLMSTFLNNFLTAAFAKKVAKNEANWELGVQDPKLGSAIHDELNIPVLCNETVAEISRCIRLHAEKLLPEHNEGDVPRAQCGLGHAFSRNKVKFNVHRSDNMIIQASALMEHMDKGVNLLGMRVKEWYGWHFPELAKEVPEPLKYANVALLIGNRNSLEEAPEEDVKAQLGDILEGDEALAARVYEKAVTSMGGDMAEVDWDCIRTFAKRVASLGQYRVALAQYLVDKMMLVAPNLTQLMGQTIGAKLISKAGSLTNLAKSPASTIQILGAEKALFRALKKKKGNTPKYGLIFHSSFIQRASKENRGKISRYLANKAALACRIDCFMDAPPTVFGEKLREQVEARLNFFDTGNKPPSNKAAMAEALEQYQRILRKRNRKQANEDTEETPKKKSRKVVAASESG
UniProt Q4Q0H2: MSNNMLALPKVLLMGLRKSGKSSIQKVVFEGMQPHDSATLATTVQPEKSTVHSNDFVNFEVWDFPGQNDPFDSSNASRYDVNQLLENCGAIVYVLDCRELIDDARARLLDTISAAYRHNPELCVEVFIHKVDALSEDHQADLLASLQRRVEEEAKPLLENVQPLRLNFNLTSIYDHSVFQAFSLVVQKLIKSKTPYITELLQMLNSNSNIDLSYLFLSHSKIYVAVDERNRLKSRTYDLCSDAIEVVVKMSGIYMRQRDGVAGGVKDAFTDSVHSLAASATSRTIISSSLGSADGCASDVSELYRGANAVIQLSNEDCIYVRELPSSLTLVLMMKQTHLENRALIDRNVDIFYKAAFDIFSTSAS
UniProt E9ADW9: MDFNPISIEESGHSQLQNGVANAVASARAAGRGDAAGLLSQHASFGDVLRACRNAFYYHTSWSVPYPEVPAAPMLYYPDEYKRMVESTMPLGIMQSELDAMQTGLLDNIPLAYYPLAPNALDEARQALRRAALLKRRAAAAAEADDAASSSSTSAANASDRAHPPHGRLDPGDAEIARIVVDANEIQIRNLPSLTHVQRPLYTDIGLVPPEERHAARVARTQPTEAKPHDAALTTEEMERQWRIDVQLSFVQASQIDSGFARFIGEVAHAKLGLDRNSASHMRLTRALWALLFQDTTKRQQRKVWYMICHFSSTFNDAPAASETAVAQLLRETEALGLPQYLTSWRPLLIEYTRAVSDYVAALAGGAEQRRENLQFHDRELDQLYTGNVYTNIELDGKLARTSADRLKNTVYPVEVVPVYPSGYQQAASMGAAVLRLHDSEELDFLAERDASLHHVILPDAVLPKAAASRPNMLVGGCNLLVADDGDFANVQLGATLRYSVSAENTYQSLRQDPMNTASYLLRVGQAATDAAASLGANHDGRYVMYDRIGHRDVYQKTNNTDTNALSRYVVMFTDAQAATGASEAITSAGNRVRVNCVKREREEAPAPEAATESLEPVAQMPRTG
UniProt Q4QGN6: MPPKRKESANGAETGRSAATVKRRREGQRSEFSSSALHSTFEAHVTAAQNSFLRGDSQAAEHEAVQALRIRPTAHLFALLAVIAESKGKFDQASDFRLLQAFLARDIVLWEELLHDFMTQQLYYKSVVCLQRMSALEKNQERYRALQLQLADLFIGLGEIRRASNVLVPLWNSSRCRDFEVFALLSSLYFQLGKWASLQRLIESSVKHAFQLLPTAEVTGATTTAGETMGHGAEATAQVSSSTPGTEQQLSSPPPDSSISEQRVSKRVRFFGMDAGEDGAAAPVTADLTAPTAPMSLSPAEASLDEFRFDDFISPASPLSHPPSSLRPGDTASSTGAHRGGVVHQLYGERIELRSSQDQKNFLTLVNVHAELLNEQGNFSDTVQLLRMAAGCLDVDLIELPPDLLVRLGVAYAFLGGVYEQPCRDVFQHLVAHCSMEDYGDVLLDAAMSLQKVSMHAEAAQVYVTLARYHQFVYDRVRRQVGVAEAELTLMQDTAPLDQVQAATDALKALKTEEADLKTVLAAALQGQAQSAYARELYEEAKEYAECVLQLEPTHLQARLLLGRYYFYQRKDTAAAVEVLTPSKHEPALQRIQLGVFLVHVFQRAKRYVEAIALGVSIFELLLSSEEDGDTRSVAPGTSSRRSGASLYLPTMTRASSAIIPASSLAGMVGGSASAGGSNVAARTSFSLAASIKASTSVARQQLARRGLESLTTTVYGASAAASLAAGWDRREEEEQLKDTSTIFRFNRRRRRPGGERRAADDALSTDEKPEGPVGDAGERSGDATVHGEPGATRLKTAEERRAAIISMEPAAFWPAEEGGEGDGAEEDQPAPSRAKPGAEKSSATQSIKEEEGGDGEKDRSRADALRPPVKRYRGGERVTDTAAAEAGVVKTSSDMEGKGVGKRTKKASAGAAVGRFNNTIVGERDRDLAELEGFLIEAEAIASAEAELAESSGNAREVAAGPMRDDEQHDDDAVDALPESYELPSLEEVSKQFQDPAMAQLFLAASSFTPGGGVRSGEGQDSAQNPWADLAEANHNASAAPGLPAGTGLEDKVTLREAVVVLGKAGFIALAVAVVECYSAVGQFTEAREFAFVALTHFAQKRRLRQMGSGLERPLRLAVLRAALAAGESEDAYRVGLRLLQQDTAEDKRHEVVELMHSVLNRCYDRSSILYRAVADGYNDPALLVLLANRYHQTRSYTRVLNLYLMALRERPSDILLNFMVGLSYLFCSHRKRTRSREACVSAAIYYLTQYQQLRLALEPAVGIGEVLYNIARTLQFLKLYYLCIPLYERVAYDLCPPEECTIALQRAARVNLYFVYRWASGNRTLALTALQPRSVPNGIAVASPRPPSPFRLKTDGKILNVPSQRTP
UniProt E9ACM4: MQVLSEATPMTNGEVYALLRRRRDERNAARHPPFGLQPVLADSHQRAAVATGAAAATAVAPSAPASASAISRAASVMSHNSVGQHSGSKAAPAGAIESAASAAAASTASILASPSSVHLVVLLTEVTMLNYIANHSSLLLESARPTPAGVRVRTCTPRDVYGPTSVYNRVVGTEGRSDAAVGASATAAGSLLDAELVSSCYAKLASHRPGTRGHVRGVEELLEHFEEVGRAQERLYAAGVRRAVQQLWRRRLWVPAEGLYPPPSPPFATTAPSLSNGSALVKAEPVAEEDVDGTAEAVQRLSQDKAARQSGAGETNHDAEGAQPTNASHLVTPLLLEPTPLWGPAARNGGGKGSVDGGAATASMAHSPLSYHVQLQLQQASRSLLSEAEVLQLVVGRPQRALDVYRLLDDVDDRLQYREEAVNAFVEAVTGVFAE

B1: TFIIIC subunit Tau131 (T. brucei) (protein, UniProt Q4GYJ1 1-1182)
chain: MASNQQDANIGVVDRQTEPKRRRRSSGTAFSSMELHRRFEEHVAKAQQLFLQGNKDGAEQEATLALRIHPTDHLFALLAVIAESKGQFNRASDLRLLQAFMANDAVLWEELLHEFMQERLYYKSAVCLHRLAVLETRDKVRYRTLQLQLADLYIGLGEFKRAAHILISLWNGSRCRDFEVFAMLSSLFFQLGRWNSLHRLIESSLKSTFRPVVCTMEGGEKPPDAPSSRLGREPSTVEGKEELTAPMARRRVPRRVRFFGVDDNDECDNDTDSVVKRAEGIQQAGSLSQPTPTVDNTCLAEALCEGDDFDFTSEGCDSQSVHGIRSGACATPSAVIHSMYGDSVKFRTATDKKNFLTLVNVHAELLNEEGNFPDTVRLVEFAAGCLNVSLLELHPDLLVRLGVAYAFLGGMEQQCREVFHHLVDTCPMAEYGDVLYDAANALQQVGLHTEARMLFQTVRRYHEFRMKGSNGNADDGNNLDDEEKTEVKTVFVAALFAESQCEASLGNIEVACDNLCRVLEVDPHHLQSRLALGRLCMYDMNDTERAIEVLTPRESEPPLERIQLAAELVRVFARSKKYVEAIALGVSVFELIMSSQYEGDADSVAPGSTRRSTAPLSMPTLSPASSAIIPPSAISDIVNGPRLSSSADLSSTRLSHALATSIRASSVAFRINLARRGGTPLTASVYGASAAASTVAGWSHGDEETGQKDSSTIFRFNRTLKPVGCLRPVNKGTCNRKCPRAADEGDVDTEDDCRRARKRRREEEVAQRDVRSFWKEHADSDTDNCGEPSNQENETEHQMEQGGAHLSTDKKSENEDEGPCIDDGSDDGDATRFELPSLEEVSKQFGDSYMQELFMQASSNEAMTSAGHMPASNVGGTIALDNVLGDDTEAGLGQAAAPLRVTMRDALKVLGCAGFIELAVTVVDCYGAIGKFTEAKEFAFVVLIGCQRTSIFRHLVTMERPLRWAVLRAALASGECEDAYRVGIRLLQEQCSEQEKDRILELLFGVLNRTEMGSSILLRLVAGGYQENPSVLVLLGNRYFLRRTYIRALNMYLAAMQRRPNDVLVCFLVGVCFLLVSHQKRIRARNACVVSAWHYLLRYQGALRDIGPQRQAEATYNCARALQYLGLHHLSTPLYEQVAYEYSVPEQCSLPLQRAARFNLYFTYRWRTGNSRLALDALQPRF

What was measured:
[1] = molecular target: LmTau95-PTP (L. major) (UniProt Q4QC86); test: affinity purification with mass spectrometry; tandem affinity purification from the L. major LmTau95-PTP cell line (IgG affinity chromatography, TEV protease elution, anti-Prot C affinity chromatography), eluate on SDS-PAGE, in-gel tryptic digestion, LC-MS/MS; two purifications; mock purification from wild-type cells as control
[2] = molecular target: TbTau95-PTP (T. brucei); test: affinity purification with mass spectrometry; tandem affinity purification from the T. brucei TbTau95-PTP cell line (IgG affinity chromatography, TEV protease elution, anti-Prot C affinity chromatography), eluate on SDS-PAGE, in-gel tryptic digestion, LC-MS/MS; two purifications; mock purification from wild-type cells as control

Molecule | binding [1] | binding [2]
Nucleolar RNA helicase II (L. major) (from UniProt Q4QJI9) | binds | 
Asparaginyl-tRNA synthetase (L. major) (from UniProt Q4Q2W6) | binds | 
Replication factor C, subunit 1 (L. major) (from UniProt Q4QAN4) | binds | 
TFIIIC subunit Tau55 (L. major) (from UniProt E9AD76) | binds | 
RuvB-like DNA helicase (LmjF.34.2610) (from UniProt Q4Q2T4) | binds | 
Replication factor C, subunit 2 (L. major) (from UniProt Q4Q732) | binds | 
Nop56, rRNA processing (L. major) (from UniProt Q4QHJ7) | binds | 
Ras-like small GTPases LmjF.36.5880 (from UniProt Q4Q0H2) | binds | 
PAF1 complex novel subunit (L. major) (from UniProt E9ADW9) | binds | 
TFIIIC subunit Tau131 (L. major) (from UniProt Q4QGN6) | binds | 
C17/RPC9 (RNAP III) (L. major) (from UniProt E9ACM4) | binds | 
B1 |  | binds
